Results taken from patent publication US20210277402A1.
Results are given in words; binding and its absence hold for the method and conditions named. Binding seen in cells or lysates may run through a third protein. Some entries that bind do so weakly or less than the wild type. Tags and fused reporters may be left off the sequences shown.

By UniProt entry, the sequences of proteins in these tests, tags left out.
UniProt Q3URK3: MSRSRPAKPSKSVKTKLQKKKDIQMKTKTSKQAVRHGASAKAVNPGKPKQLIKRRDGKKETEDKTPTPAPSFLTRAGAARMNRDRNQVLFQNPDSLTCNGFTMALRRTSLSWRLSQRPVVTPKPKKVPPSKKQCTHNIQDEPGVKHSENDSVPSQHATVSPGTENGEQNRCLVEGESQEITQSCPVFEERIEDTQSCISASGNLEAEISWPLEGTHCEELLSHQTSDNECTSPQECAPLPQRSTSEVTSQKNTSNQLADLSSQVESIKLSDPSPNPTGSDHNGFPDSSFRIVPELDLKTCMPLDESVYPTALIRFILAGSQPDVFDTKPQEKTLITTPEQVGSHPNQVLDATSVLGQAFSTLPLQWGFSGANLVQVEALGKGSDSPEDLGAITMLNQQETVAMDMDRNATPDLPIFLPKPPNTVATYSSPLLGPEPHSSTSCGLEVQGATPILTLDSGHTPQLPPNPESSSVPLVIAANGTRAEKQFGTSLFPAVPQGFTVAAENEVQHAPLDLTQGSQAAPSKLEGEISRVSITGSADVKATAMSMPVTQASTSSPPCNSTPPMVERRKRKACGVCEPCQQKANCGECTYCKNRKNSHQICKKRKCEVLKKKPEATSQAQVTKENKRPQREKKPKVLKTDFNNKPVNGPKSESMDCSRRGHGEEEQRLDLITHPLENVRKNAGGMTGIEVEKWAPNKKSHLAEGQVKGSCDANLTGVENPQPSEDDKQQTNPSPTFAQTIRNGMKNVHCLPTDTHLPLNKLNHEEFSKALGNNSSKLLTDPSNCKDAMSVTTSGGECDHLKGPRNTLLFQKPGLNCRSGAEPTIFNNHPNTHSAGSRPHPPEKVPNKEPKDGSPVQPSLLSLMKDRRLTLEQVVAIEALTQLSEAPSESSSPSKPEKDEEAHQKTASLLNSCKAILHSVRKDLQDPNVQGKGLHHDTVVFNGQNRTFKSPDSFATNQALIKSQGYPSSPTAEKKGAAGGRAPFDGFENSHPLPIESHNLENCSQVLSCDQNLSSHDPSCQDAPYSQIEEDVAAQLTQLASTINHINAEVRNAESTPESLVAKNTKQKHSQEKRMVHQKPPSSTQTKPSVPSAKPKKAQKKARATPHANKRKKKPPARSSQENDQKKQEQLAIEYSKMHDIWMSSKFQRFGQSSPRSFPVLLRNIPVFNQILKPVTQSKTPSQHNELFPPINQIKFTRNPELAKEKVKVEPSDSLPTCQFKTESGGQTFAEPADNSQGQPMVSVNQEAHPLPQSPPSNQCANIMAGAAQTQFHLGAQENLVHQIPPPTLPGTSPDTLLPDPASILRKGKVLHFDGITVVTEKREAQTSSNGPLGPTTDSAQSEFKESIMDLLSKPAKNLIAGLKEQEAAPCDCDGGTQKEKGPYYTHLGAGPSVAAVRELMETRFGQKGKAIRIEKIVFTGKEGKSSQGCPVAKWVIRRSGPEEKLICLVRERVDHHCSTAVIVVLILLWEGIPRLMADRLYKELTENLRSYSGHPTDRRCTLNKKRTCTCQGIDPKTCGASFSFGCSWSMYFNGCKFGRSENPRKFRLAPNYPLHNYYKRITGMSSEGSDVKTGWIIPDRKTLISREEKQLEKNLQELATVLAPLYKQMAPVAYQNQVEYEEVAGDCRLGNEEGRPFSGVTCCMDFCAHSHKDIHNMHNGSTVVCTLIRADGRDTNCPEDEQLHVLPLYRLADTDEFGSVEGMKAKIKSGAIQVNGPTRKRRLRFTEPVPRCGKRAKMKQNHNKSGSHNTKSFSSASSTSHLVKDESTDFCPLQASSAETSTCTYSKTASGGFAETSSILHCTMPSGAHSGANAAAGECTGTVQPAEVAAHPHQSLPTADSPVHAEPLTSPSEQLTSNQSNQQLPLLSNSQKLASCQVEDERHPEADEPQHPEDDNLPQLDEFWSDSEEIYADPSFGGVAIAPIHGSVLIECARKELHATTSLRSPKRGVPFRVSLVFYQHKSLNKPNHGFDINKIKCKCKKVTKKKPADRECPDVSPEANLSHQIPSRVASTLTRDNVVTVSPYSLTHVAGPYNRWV
UniProt Q8BG87: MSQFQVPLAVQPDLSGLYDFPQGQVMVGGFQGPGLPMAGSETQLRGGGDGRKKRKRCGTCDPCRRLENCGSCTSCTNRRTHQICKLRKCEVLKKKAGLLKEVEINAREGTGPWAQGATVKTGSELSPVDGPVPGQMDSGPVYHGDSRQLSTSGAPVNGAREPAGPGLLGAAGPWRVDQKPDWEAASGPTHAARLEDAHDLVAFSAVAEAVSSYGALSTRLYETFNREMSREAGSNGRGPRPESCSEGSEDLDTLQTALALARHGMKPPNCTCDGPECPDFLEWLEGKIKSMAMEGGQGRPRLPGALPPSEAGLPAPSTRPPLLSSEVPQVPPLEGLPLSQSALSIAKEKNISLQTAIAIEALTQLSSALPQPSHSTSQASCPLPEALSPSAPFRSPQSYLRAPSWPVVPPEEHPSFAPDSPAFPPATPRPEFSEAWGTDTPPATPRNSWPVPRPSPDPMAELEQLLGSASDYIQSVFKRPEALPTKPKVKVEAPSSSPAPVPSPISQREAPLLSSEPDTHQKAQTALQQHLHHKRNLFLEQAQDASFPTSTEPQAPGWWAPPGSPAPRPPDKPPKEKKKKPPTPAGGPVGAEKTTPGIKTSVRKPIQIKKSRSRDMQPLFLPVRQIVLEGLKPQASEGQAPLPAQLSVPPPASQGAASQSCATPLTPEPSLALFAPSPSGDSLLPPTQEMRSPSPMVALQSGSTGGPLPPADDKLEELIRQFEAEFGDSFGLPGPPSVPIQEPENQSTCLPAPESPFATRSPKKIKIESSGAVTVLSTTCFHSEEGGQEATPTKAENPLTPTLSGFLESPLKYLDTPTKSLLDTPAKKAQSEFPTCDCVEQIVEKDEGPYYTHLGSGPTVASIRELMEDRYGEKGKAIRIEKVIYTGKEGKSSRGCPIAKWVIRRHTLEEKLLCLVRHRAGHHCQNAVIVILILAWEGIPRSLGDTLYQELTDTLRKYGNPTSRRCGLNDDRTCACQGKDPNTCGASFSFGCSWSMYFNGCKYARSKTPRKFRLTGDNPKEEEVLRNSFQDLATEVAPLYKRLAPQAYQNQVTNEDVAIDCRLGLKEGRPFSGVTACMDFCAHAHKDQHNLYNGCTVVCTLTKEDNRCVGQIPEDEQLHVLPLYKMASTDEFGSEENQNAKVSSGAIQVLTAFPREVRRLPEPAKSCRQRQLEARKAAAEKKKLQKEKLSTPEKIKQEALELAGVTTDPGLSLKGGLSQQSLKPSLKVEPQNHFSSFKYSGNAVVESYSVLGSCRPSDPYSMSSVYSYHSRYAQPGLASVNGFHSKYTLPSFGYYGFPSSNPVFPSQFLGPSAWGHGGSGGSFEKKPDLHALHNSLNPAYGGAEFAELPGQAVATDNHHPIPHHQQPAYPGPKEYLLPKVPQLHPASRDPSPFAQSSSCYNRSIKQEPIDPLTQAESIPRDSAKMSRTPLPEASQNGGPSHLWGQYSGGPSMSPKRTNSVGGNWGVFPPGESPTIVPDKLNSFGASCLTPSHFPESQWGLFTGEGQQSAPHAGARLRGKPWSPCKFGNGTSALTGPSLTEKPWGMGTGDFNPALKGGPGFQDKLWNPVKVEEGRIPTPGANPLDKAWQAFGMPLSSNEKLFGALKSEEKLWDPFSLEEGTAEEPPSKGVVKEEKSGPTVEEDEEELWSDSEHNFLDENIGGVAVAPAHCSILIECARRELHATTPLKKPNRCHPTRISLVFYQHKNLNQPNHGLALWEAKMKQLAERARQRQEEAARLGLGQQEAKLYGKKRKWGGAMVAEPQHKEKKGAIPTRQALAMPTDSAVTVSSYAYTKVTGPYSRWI

Experiments:
[1] = molecular target: Ten-eleven translocation methylcytosine dioxygenase 1 (Tet1) (mouse) (UniProt Q3URK3); assay: co-immunoprecipitation from mouse HSC lysates (FIG. 10A)
Tet3 (mouse) = Tet3 (mouse) (UniProt Q8BG87); assay: co-immunoprecipitation from mouse HSC lysates (FIG. 10B)

binding [1]: binds
binding (Tet3 (mouse)): binds
B1: O-linked N-acetylglucosamine (O-GlcNAc) transferase OGT (enzyme, mouse, UniProt Q8CGY8 2-1046, looked up)
chain: ASSVGNVADSTEPTKRMLSFQGLAELAHREYQAGDFEAAERHCMQLWRQEPDNTGVLLLLSSIHFQCRRLDRSAHFSTLAIKQNPLLAEAYSNLGNVYKERGQLQEAIEHYRHALRLKPDFIDGYINLAAALVAAGDMEGAVQAYVSALQYNPDLYCVRSDLGNLLKALGRLEEAKACYLKAIETQPNFAVAWSNLGCVFNAQGEIWLAIHHFEKAVTLDPNFLDAYINLGNVLKEARIFDRAVAAYLRALSLSPNHAVVHGNLACVYYEQGLIDLAIDTYRRAIELQPHFPDAYCNLANALKEKGSVAEAEDCYNTALRLCPTHADSLNNLANIKREQGNIEEAVRLYRKALEVFPEFAAAHSNLASVLQQQGKLQEALMHYKEAIRISPTFADAYSNMGNTLKEMQDVQGALQCYTRAIQINPAFADAHSNLASIHKDSGNIPEAIASYRTALKLKPDFPDAYCNLAHCLQIVCDWTDYDERMKKLVSIVAEQLEKNRLPSVHPHHSMLYPLSHGFRKAIAERHGNLCLDKINVLHKPPYEHPKDLKLSDGRLRVGYVSSDFGNHPTSHLMQSIPGMHNPDKFEVFCYALSPDDGTNFRVKVMAEANHFIDLSQIPCNGKAADRIHQDGIHILVNMNGYTKGARNELFALRPAPIQAMWLGYPGTSGALFMDYIITDQETSPAEVAEQYSEKLAYMPHTFFIGDHANMFPHLKKKAVIDFKSNGHIYDNRIVLNGIDLKAFLDSLPDVKIVKMKCPDGGDNPDSSNTALNMPVIPMNTIAEAVIEMINRGQIQITINGFSISNGLATTQINNKAATGEEVPRTIIVTTRSQYGLPEDAIVYCNFNQLYKIDPSTLQMWANILKRVPNSVLWLLRFPAVGEPNIQQYAQNMGLPQNRIIFSPVAPKEEHVRRGQLADVCLDTPLCNGHTTGMDVLWAGTPMVTMPGETLASRVAASQLTCLGCLELIAKSRQEYEDIAVKLGTDLEYLKKIRGKVWKQRISSPLFNTKQYTMELERLYLQMWEHYAAGNKPDHMIKPVEVTESA
